Source: ChEMBL document CHEMBL4118244, “Design, synthesis and biological evaluation of benzofuran appended benzothiazepine derivatives as inhibitors of butyrylcholinesterase and antimicrobial agents” (Bioorg Med Chem, 2018)

How the values were obtained:
Format in all cases: functional
Staphylococcus aureus = test: Antibacterial activity against Staphylococcus aureus ATCC 29737 assessed as diameter of inhibition zone at 200 ug per disc after 24 hrs by agar disc diffusion method
In short: (§1)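 Agar disc diffusion. Compounds at 20 mg mL⁻¹ in DMSO, filter-sterilised. 100 µL of 10⁸ CFU mL⁻¹ bacteria spread on nutrient agar. 6 mm discs carried 10 µl (200 µg per disc), with DMSO discs as negative control. Incubation 24 h at 37 °C. Read-out is inhibition zone diameter, mean of 3 repeats (±1 mm).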

Escherichia coli = test: Antibacterial activity against Escherichia coli ATCC 10536 assessed as diameter of inhibition zone at 200 ug per disc after 24 hrs by agar disc diffusion method; in short: as §1
Pseudomonas aeruginosa = test: Antibacterial activity against Pseudomonas aeruginosa ATCC 27853 assessed as diameter of inhibition zone at 200 ug per disc after 24 hrs by agar disc diffusion method; in short: as §1
Candida albicans = test: Antifungal activity against Candida albicans ATCC 10231 assessed as diameter of inhibition zone at 200 ug per disc after 48 hrs by agar disc diffusion method
In short: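 Yeast tested by agar disc diffusion. Compounds at 20 mg mL⁻¹ in DMSO, filter-sterilised. 6 mm discs carried 10 µl (200 µg per disc), with DMSO discs as negative control. Incubation 48 h at 30 °C. Zone diameter was averaged over 3 repeats (±1 mm).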

GENTAMICIN
inhibition zone (IZ) (Staphylococcus aureus): 21 mm
inhibition zone (IZ) (Escherichia coli): 20 mm
inhibition zone (IZ) (Pseudomonas aeruginosa): < 6 mm

NYSTATIN
inhibition zone (IZ) (Candida albicans): 33 mm
